Patent US10537650B2, “Molecular probes for multimodality imaging and tracking of stem cells” (University of Massachusetts, priority 2012, dated 2020)
Entries after “also recorded” stand apart in the source; their conditions may differ.

What was measured:
[1] = SPECT/CT, whole body activity and optical imaging of ^111In-MTTI-157 labeled LS174T cells in SKH-1 mice; type: in vivo, mouse; settings: lungs, liver, spleen of SKH-1 mice after tail vein injection of labeled LS174T cells
Procedure: ^111In-MTTI-157 labeled LS174T cells were administered to mice to follow their fate and that of the labels they carried. All animal experiments were approved by the Institutional Animal Care and Use Committee of the university. Male SKH-1 mice about 8 week-old (Charles River Laboratories, Inc., Wilmington, Mass.) were housed under standard conditions and fed white chow (AIN-93G Purified Diet, Harlan, Madison, Wis.). LS174T cells were prepared labeled with ^111In-MTTI-157 as above, and about 5×10^6 cells with 10-12 μCi was injected by tail vein per mouse.
The mice were followed by SPECT/CT imaging (NanoSPECT/CT, Bioscan, Inc., Washington, D.C.) with scans at 30 min, 1 h, 24 h, 72 h, 120 h and 168 h following injection. The SPECT image parameters were 1.0 mm/pixel, 256×256 frame size and 60 sec per projection with 24 projections. Acquisition time was approximately 30 min. During imaging, the animal was anesthetized with 1-2% isoflurane in 1.5 L/min oxygen. A CT scan was acquired prior to the SPECT scan and was performed at standard resolution, using a 45 kVp voltage and 500 milliseconds exposure time. […]
Optical images (Pearl Imager, LiCor Biosciences, Lincoln, Nebr.) were acquired on day 0 and at intervals through day 28. […] After imaging, the lungs, liver and spleen were removed, imaged and then imbedded in OCT in preparation for frozen section fluorescence microscopy. […]

[2] = system: LS-174T cells; assay: Culture of ^111In-MTTI-157 labeled LS-174T cells: fluorescence microscopy and gamma counting over 8 days; type: cell-based, human
Procedure: The ^111In-MTTI-157 labeled LS-174Tcells were seeded into 12-well plates with about 10^6 cells per well to grow under normal culture conditions to evaluate cell viability, dye stability, and dye partitioning to daughter cells over time. The cell-associated fluorescence was detected from the plates on an Olympus IX 70. Inverted Light Microscope (Olympus America, Inc., NY) using a Cy5 filter on days 0, 3 and 8 after seeding. On each day, samples of cells were collected, counted for cell number with a hemocytometer and radioactivity per 10^6 cells determined by gamma well counter Na (TI) (Cobra II Auto-Gamma, Packard Instrument Co, Downer Grove, Ill.).

## CCCCCCCCCCCCCCCCCCCCCCN1C(=CC=CC=CC2=[N+](CCCCCCCCCCCCCCCCCCCCCC)c3ccc(CNC(=O)CN4CCN(CC(=O)O)CCN(CC(=O)O)CCN(CC(=O)O)CC4)cc3C2(C)C)C(C)(C)c2ccccc21.[I-] [MTTI-157]
[1]
  cell associated MTTI-157 signal in tissue frozen sections (fluorescence microscopy): apparent in lungs through day 14 and in liver through day 28; also recorded: lung thru Day 21 and liver and spleen thru Day 28

## CCCCCCCCCCCCCCCCCCCCCCN1C(=CC=CC=CC2=[N+](CCCCCCCCCCCCCCCCCCCCCC)c3ccc(CNC(=O)CN4CCN(CC(=O)[O-])CCN(CC(=O)[O-])CCN(CC(=O)[O-])CC4)cc3C2(C)C)C(C)(C)c2ccccc21.[111In+3].[I-] [^111In-MTTI-157]
[2]; cells labeled with 20 μM, days 0, 3 and 8
  retention of fluorescence marker on proliferation: succeeding generations retained the fluorescence marker with no apparent effect on cell viability
[2]; days 3-8 in culture, 2, 10 and 20 μM
  cell associated radioactivity: did not change at each dye concentration
